Data as given in US9029593B2, “Method for manufacturing spilanthol and intermediate manufacturing product therefor” (Takasago International Corporation, priority 2009, dated 2015).
Entries after “also recorded” stand apart in the source; their conditions may differ.

Assay: Sensory evaluation of aqueous solutions containing 10 ppm of N-isobutyl-2,6,8-decatrienamide
Type: in vivo
Settings: aqueous solution containing 10 ppm
Method: The sensory evaluation was performed using aqueous solutions respectively containing 10 ppm of N-isobutyl-2,6,8-decatrienamide obtained in Example 2 and Comparative Example 1.

SMILES: CC=CC=CCC/C=C/C(=O)NCC(C)C (racemic) [Example 2, N-isobutyl-2,6,8-decatrienamide]
- Odor: hardly had an unusual odor; also recorded: little odor
